# Measurements: PubChem BioAssay AID587 (National Center for Advancing Translational Sciences (NCATS), 2007)
# “And” between values parts separate entries of the source, which are not always exact repeats. Equal entries are not always repeated. About 35 (0.06%) of roughly 59,000 compounds were called active. Inconclusive means that the source gave no clear call. Such entries were picked first, then a sample of the others. Cut-off read from the data, not from the text of the source: active = max dye-equivalent concentration above about 10 nM; inconclusive = between about 1.1 nM and that limit; inactive = weaker than that.
# Assay: qHTS Assay for Spectroscopic Profiling in Texas Red Spectral Region
# Details: Compound fluorescence, Texas Red channel, 547/618 nm; active compounds read high
# Text: NIH Molecular Libraries Screening Centers Network [MLSCN] NIH Chemical Genomics Center [NCGC] […] Occasionally, the artifactual effect may originate from the compound#s own spectral or other biophysical properties which generally tend to track its assay concentration. Pre-screening/profiling the library with respect to the compounds# spectral properties should help one exclude false positives early on. While the most informative fluorescent profiling data set is obtained by performing a full excitation and emission scan of each well by using a monochromator-based plate reader, such an approach is practical only on a very limited scale as scanning each well requires long time. An alternative approach, applied here, is to perform plate reader scans using selected excitation and emission wavelength pairs to generate a multidimensional relational database that correlates compound concentration and the respective relative fluorescence intensity at a given wavelength set. A standard curve of Texas Red (TR) present on each plate as six-point concentration series, was used to compute a normalized fluorescence response, termed dye-equivalent concentration, for each compound at each concentration.
# NCGC Assay Protocol Summary: Buffer: 100 mM Tris buffer, pH 8.0 Dye standard plate: The wells in columns 1 through 4 of a Kalypsys polypropylene 1536-well compound plate were filled with standard solutions of fluorophore corresponding to the spectral region of interest. Solutions of TR were placed in the following wells: U1, V1: 3 mM, U2, V2: 300 uM, U3, V3: 30 uM, U4, V4: zero (DMSO), W1, X1: 3 uM, W2, X2: 900 nM, W3, X3: 300 nM, W4, X4: zero (DMSO). Assay Steps: Six uL of buffer were dispensed to 1536-well Greiner black plates. Compounds and dye standards (23 nL) were transferred via Kalypsys PinTool. The plates were incubated for 15 min at room temperature, and then read on ViewLux (Perkin-Elmer) High-throughput CCD imager using 547 nm and 618 nm excitation and emission filter set. Keywords: NIH Roadmap, MLSCN, MLI, MLSMR, qHTS, NCGC, Texas Red, Fluorescent Profiling.
row,Compound,max dye-equivalent concentration
1,O=C(O)CS(=O)(=O)C(c1ccccc1)c1ccccc1,inconclusive: 2e-09 M
2,C[C@@H](CO)NC(=O)[C@H]1C=C2c3cccc4[nH]cc(c34)C[C@H]2N(C)C1,inactive
3,COc1ccc(OCC(=O)N2CCN(CC3CC4C=CC3C4)CC2)cc1 (stereo unspecified),inconclusive: 1.4e-09 M
4,N=C(N)n1cc(/C=N\N=C(N)N)cn1,inactive
5,CCC(C)(C)n1nnnc1C(c1cccs1)N1CC=C(c2ccc(F)cc2)CC1 (stereo unspecified),inconclusive: 2e-09 M
6,O=c1[nH]c(=O)n(CCC2=CCCCC2)c(O)c1C=NCc1cccnc1,inconclusive: 1.4e-09 M
7,C=CCn1c(O)c(C=NCCN(C)C)c(=O)[nH]c1=O,inactive
8,O=C(C1CCCN(c2nnc(-n3cccc3)s2)C1)N1CCC2(CC1)OCCO2 (stereo unspecified),inconclusive: 1.9e-09 M
9,NCCc1c[nH]c2ccc(O)cc12,inconclusive: 2e-09 M
10,CCC(=NCc1ccco1)c1c(O)n(-c2ccccc2)c(=O)[nH]c1=O,inconclusive: 1.5e-09 M
11,O=C1NC(=O)N(Cc2ccccc2Cl)C(=O)/C1=C/N1CCOCC1,inconclusive: 1.1e-09 M
12,CC(C)[C@@]1(NC(=O)[C@H]2C[C@H]3c4cccc5[nH]cc(c45)C[C@@H]3N(C)C2)O[C@]2(O)[C@H]3CCCN3C(=O)[C@H](Cc3ccccc3)N2C1=O,inactive
13,CCCN(CC#CCO)CCC,inconclusive: 1.4e-09 M
14,COCCOC(=O)c1c(N)n(Cc2ccc(OC)cc2)c2nc3ccccc3nc12,inconclusive: 1.7e-09 M
15,Cc1cccn2c(=O)c3c(nc12)N1CCC(Cc2ccccc2)CC1C1(C3)C(=O)N(C)C(=O)N(C)C1=O (stereo unspecified),inconclusive: 6.6e-09 M
16,Cn1c2ccccc2c2c(C(=O)N3CCC4(CC3)OCCO4)cn(C3CCCCC3)c(=O)c21,inconclusive: 1.4e-09 M
17,CS(=O)(=O)N1CCCC(C(=O)N2CCC3(CC2)OCCO3)C1 (stereo unspecified),inconclusive: 1.4e-09 M
18,CN(C)C1=C(C#N)C(c2ccccc2)=NP(N(C)C)(N(C)C)=N1,inconclusive: 1.4e-09 M
19,CN(C)c1cc(N)c2c(n1)CCC2 (tested in a mixture with another compound),inconclusive: 1.4e-09 M
20,CCOC(=O)C(C)Oc1cc(C)cc2oc(=O)c3c(c12)CCCC3 (stereo unspecified),inconclusive: 1.1e-09 M
21,C[C@@]1(CO)[C@H](O)CC[C@@]2(C)[C@H]1CC[C@H]1C[C@@H]3C[C@@]12CC[C@]3(O)CO,inactive

row,Compound,max dye-equivalent concentration
1,O=C(O)[C@H]1CCN1,inconclusive: 1.3e-09 M
2,CCC(=NCCO)c1c(O)n(-c2ccc(Cl)cc2)c(=O)[nH]c1=O,inactive
3,O=C(O)C(Oc1nc(=S)[nH]c(=S)[nH]1)(c1ccc(Cl)cc1)c1ccc(Cl)cc1,inconclusive: 1.2e-09 M
4,C[C@H]1CC[C@]2(NC1)O[C@@H]1C[C@@H]3[C@@H]4CC=C5C[C@H](O)CC[C@@]5(C)[C@H]4CC[C@@]3(C)[C@H]1[C@@H]2C,inactive
5,CN1C2CCC1CC(OC(=O)CCN1CCCC1)C2 (stereo unspecified),inconclusive: 1.4e-09 M
6,CCN(CC)CCCN=Cc1c(O)n(Cc2ccc(F)cc2)c(=O)[nH]c1=O,inconclusive: 1.1e-09 M
7,O=C(c1ccc(CS(=O)(=O)c2ccccc2)o1)N1CCC2(CC1)OCCO2,inconclusive: 1.2e-09 M
8,CCCN(CCC)[C@@H]1CCc2cccc(O)c2C1,inconclusive: 1.1e-09 M
9,C=CCN1C(=O)CSc2ccc(C(=O)N3CCC4(CC3)OCCO4)cc21,inconclusive: 1.3e-09 M
10,CCC(=NCCCN(CC)CC)c1c(O)n(-c2ccccc2)c(=O)[nH]c1=O,inconclusive: 1.4e-09 M
11,COc1ccc2c3c1O[C@@H]1C(=O)CC[C@@]4(O)[C@@H](C2)N(CC2CC2)CC[C@]314,inactive
12,C=C1[C@@H]2CC[C@H]3[C@@]4(C)C[C@@H](O[C@@H]5O[C@H](CO)[C@H](OS(=O)(=O)O)[C@@H](OS(=O)(=O)O)[C@@H]5OC(=O)CC(C)C)C[C@@H](C(=O)O)[C@H]4CC[C@@]3(C2)[C@H]1O,inconclusive: 1.2e-09 M
13,CNCCc1c[nH]c2ccccc12,inconclusive: 1.1e-09 M
14,Cn1c(=O)c2nncnc2n(C)c1=O,inactive
15,CCCN(CCC)CCc1c[nH]c2ccc(C(N)=O)cc12,inconclusive: 1.1e-09 M
16,CCCCCCN=C(CC)c1c(O)n(CCCC)c(=O)[nH]c1=O,inconclusive: 1.1e-09 M
17,c1cc(N2CCCC3(CCNCC3)C2)ccn1,inactive
18,CC(=NCC1CCCO1)c1c(O)n(-c2ccccc2)c(=O)[nH]c1=O (stereo unspecified),inconclusive: 1.6e-09 M
19,C[C@H](N[C@@H](C)CCc1ccccc1)[C@H](O)c1ccc(O)cc1,inconclusive: 1.2e-09 M
20,CC1(C)CC(=O)C(C=NCCN2CCN(C(=O)Cc3ccc(Cl)cc3)CC2)=C(O)C1,inconclusive: 1.8e-09 M
21,C=CCN1CCC2(C)c3cc(O)ccc3C[C@H]1[C@H]2C,inconclusive: 1.1e-09 M and inconclusive: 1.4e-09 M

# Reformatted with tabs: 4 of the compounds above
row	Compound	max dye-equivalent concentration
3	O=C(O)C(Oc1nc(=S)[nH]c(=S)[nH]1)(c1ccc(Cl)cc1)c1ccc(Cl)cc1	inconclusive: 1.2e-09 M
4	C[C@H]1CC[C@]2(NC1)O[C@@H]1C[C@@H]3[C@@H]4CC=C5C[C@H](O)CC[C@@]5(C)[C@H]4CC[C@@]3(C)[C@H]1[C@@H]2C	inactive
5	CN1C2CCC1CC(OC(=O)CCN1CCCC1)C2 (stereo unspecified)	inconclusive: 1.4e-09 M
6	CCN(CC)CCCN=Cc1c(O)n(Cc2ccc(F)cc2)c(=O)[nH]c1=O	inconclusive: 1.1e-09 M

# The listing continues:

row,Compound,max dye-equivalent concentration
1,CCN=C=NCCCN(C)C,inactive
2,Nc1c(C(=O)NCCc2ccccc2)c2nc3ccccc3nc2n1CCN1CCOCC1,inactive
3,O=C1C[C@@H]2OCC=C3CN4CC[C@]56c7ccccc7N1[C@H]5[C@@H]2[C@H]3C[C@@H]46,inactive
4,O=C(Cc1ccccc1)OC(COCc1ccccc1)CN1CCOCC1 (stereo unspecified),inconclusive: 1.4e-09 M
5,N=Cc1c(O)n(-c2cccc(Cl)c2)c(=O)[nH]c1=O,inconclusive: 1.5e-09 M
6,CCC(C)N1C(=O)NC(=O)C2(Cc3cc(C)ccc3N(C)C2)C1=O (stereo unspecified),inconclusive: 2.2e-09 M
7,CCC(C)NC(=O)c1c(N)n(Cc2ccc3c(c2)OCO3)c2nc3ccccc3nc12 (stereo unspecified),inconclusive: 1.6e-09 M
8,CC(C)OCCCNC(=O)c1c(N)n(CC2CCCO2)c2nc3ccccc3nc12 (stereo unspecified),inconclusive: 2.2e-09 M
9,NC(=O)c1ccc(OC[C@H](O)CN2CC=C(c3ccc(F)cc3)CC2)cc1,inconclusive: 1.9e-09 M
10,O=C(c1ccc2nc3ccc(Cl)cc3c(=O)n2c1)N1CCC2(CC1)OCCO2,inconclusive: 1.7e-09 M
11,CC(C)[C@H]1C(=O)N2CCC[C@@H]2[C@]2(O)O[C@@](NC(=O)[C@H]3C=C4c5cccc6[nH]cc(c56)C[C@H]4N(C)C3)(C(C)C)C(=O)N12,inactive
12,CC1CN(O)C2CCc3nonc3C12O (stereo unspecified),inconclusive: 1.2e-09 M
13,CCCCn1c(O)c(C(C)=NC(C)c2ccccc2)c(=O)[nH]c1=O (stereo unspecified),inconclusive: 1.2e-09 M
14,O=C(COc1ccccc1)N1CCN(CC2CC3C=CC2C3)CC1 (stereo unspecified),inconclusive: 1.2e-09 M
15,COC1=C[C@H]2[C@@H]3Cc4ccc(OC)c(O)c4[C@@]2(CCN3C)CC1=O,inactive
16,CN1CCC(n2nccc2N)CC1,inconclusive: 2.3e-09 M
17,CC(C)NC(=O)N1CCCC2(CCN(C(=O)Oc3ccccc3)CC2)C1,inactive
18,OCCN1C2CCC1CC(O)(c1ccc(F)cc1)C2 (stereo unspecified),inconclusive: 1.2e-09 M
19,C=C(C)[C@@H]1CN[C@H](C(=O)O)[C@H]1CC(=O)O,inconclusive: 1.4e-09 M
20,CCCCn1c(NC(=O)c2ccco2)c(C(=O)OCC)c2nc3ccccc3nc21,inconclusive: 1.2e-09 M
21,CCOC(=O)CN1C(=O)C2(C(C#N)=C(N)Oc3ccccc32)C(C(=O)OC)=C1C (stereo unspecified),inconclusive: 1.2e-09 M

row,Compound,max dye-equivalent concentration
1,Cc1cccc(N2CCc3c2nc2ccccc2c3N)c1,inactive
2,CCN1C[C@]2(C)CC[C@@H](O)[C@]34[C@@H]5CC6[C@@H](OC)C[C@@](O)([C@H]5[C@@H]6O)[C@@H](C[C@@H]23)[C@H]14,inconclusive: 1.4e-09 M
3,CCN(CC)CCN=Cc1c(O)n(CCC2=CCCCC2)c(=O)[nH]c1=O,inconclusive: 1.6e-09 M
4,O=C(Cn1ncc2c3ccccc3n(Cc3cccc(Cl)c3)c2c1=O)N1CCC2(CC1)OCCO2,inconclusive: 1.6e-09 M
5,CCCN(CCC)[C@@H]1CCc2ccc(O)cc2C1,inconclusive: 1.2e-09 M
6,CC1(C)C(C(=O)NCc2ccco2)C1(C)C,inconclusive: 1.2e-09 M
7,CC1=NCCc2c1[nH]c1cc(O)ccc21,inactive
8,Cn1c(C(=O)O)c(CC(=O)N2CCN(Cc3ccccc3)CC2)c2ccccc21,inconclusive: 1.1e-09 M
9,C=CCn1c(O)c(C(CC)=NCc2cc(OC)cc(OC)c2)c(=O)[nH]c1=O,inconclusive: 2.1e-09 M
10,COc1ccc2c(c1)[C@]13CCCC[C@@H]1[C@H](C2)N(C)CC3,inconclusive: 1.4e-09 M
11,COc1cc2c(C(=O)N3CCN(C)CC3)c(C)n(C)c2cc1Br,inconclusive: 1.5e-09 M
12,CCN(CC)c1ncnc2c1ncn2[C@@H]1O[C@@H](COP(=O)(O)OP(=O)(O)C(Br)(Br)P(=O)(O)O)[C@H](O)[C@@H]1O,inactive
13,CCn1c(=O)cc(SCC(=O)N2CCC3(CC2)OCCO3)c2ccccc21,inconclusive: 2.4e-09 M
14,Cn1nc(N)c2c1N=P(N1CCOCC1)(N1CCOCC1)N=C2c1ccccc1,inconclusive: 1.6e-09 M
15,S=C(NC1CCCCC1)N1CCC(c2cnc[nH]2)CC1,inconclusive: 1.4e-09 M
16,C=C(C)[C@H]1[C@H]2OC(=O)[C@@H]1[C@]1(O)C[C@H]3O[C@]34C(=O)O[C@H]2[C@@]14C,inconclusive: 1.6e-09 M
17,O=C(O)c1ccccc1-c1c2cc(Br)c(=O)cc-2oc2[c]([Hg])c(O)c(Br)cc12,active: 1.5e-08 M
18,O=c1cccc2n1C[C@H]1C[C@@H]2CN(CCO)C1,inactive
